B1: il10ra_site1_normal_mot_HHH_b1_02708_af2_000000019_0001_23_39_H_._HHH_b2_03011_0001_0000200021_0000001_1_af2pred_0001 (protein)
chain: SSSTLEERVVRLLFRALELLAKGDEEEARELIEEAEELARERNDEELLRAVEILLRLLELLSSSS
B2: il10ra_site1_sap_24_mot_HHH_b1_01879_000000050_0001_1_18_H_._HHH_b1_01254_af2_0001_0000100001_0000001_1_0001_af2pred_0001 (protein)
chain: SSSSDEEEQRALKLFIEISRALSNNDHEKAEELLEEVKELVEELNDPRLELAVRFLEALLKSSSS
B3: il10ra_site1_sap_25_mot_HHH_b1_05083_af2_000000148_0001_42_57_H_._HHH_b1_01020_0001_0000100003_0000001_0_0001 (protein)
chain: SSSSSEEELEELEKQVEKLIEEGNLREAMRVIAEAIRLAMRLGDEETLRELWELVQEIGRESSSS
B4: il10ra_site1_normal_mot_HHH_b2_03117_000000257_0001_1_18_H_._HHH_b2_06044_0001_0000100014_0000001_0 (protein)
chain: SSSSADELFRRVRELLEEASELAHNGNPEEAEKVLEEAEELVEEAGNETVLRVIRHALRLLSSSS
B5: il10ra_site1_normal_mot_HHH_b1_05099_000000057_0001_40_58_H_._HHH_b1_07262_0001_0000100008_0000002_1_af2pred_0001 (protein)
chain: SSSSSKEEEAFEKAREALERLARANNEELLKILAEDAARLLRLAGNPELAERLEEILEELRSSSS
B6: il10ra_site1_normal_mot_HHH_b1_04771_000000013_0001_40_56_H_._HHH_b2_02427_0001_0000100003_0000002_0 (protein)
chain: SSSSSDREEVLKLSQEAFRLALRGNPEEARKVLEEAEELAEELGNERALRVIEDLLRVLNSSSSS
B7: il10ra_site1_sap_10_mot_HHH_b1_02997_000000220_0001_39_52_H_._HHH_b2_06581_af2_0001_0000200006_0000001_0_0001 (protein)
chain: SSSSSEDEELIEAALRMARQAYENGNPETVRFLLWSAQFLAEEINDPELERKIEELEEELSSSSS
B8: il10ra_site1_normal_mot_HHH_b1_01011_000000096_0001_1_19_H_._HHH_b1_01367_0001_0000200014_0000002_0 (protein)
chain: SSSSSSNAERAVRFFLEAAKQIEDPEYVRLALRFARALAEDANDDELQRLVEEVEEELSSSSSSS
B9: il10ra_site1_normal_mot_HHH_b2_07746_000000186_0001_39_52_H_._HHH_b1_05626_af2_0001_0000100001_0000001_0 (protein)
chain: SSSSSSEEEKLKEILEELEELVEEGDRERFFEVYREALKLAFRTKDPEVFQRLYELARLLSSSSS
B10: il10ra_site1_sap_17_mot_HHH_b1_03279_000000242_0001_1_18_H_._2d357d39908965df4d2a4f0d1f6bb01a_0001_0001_0000500012_0000001_0_0001 (protein)
chain: SSSSDEELQEALELVLEAFRLALRGDPEEAREVLEEALELARQANDERLARQIEHMLEALHSSSS
B11: il10ra_site1_sap_10_mot_HHH_b1_05797_000000014_0001_1_19_H_._HHH_b1_08280_0001_0000100003_0000001_0_0001_af2pred_dldesign_0_af2pred (protein)
chain: SSSSSPEVEKKLAELKEKMEKAKNIDELMEIYREAKDAFFTYGEPELVELLKEIAKKIGEESSSS
B12: il10ra_site1_sap_16_mot_49468d6c54d8157f7969f91124172a68_0001_af2_000000173_0001_37_51_H_._f00c3073f43cf787293aa5685f029966_0001_1_0001_0000900033_0000001_0_000 … (protein)
chain: SSSSSAEFLVKQALRAARLVLEAGDEEETERILELARAVARNGGNPELEKEVEEVEEKLRGSSSS
B13: il10ra_site1_sap_17_mot_HHH_b2_06857_af2_000000179_0001_42_54_H_._HHH_b1_07223_af2_0001_0000800044_0000001_0_0001 (protein)
chain: SSSSDDEELVEAAIRLVEQALEHGDKEAAEFMLMAIRMLVEELGDDELERLLEELEELIERSSSS
B14: il10ra_site1_normal_mot_HHH_b2_00475_000000107_0001_44_57_H_._HHH_b1_05669_af2_0001_0000100005_0000001_1 (protein)
chain: SSSSSDQEVAELLFRAVRLHAEGNPEEAEKVVEEAQEIAEELGDEELRRYVEIALHFIRNSSSSS
B15: il10ra_site1_sap_19_mot_HHH_b2_05343_000000235_0001_19_35_H_._HHH_b1_03328_af2_0001_0000900010_0000001_0_0001 (protein)
chain: SSSSSEEEKLRELLEELEELVERGDEEKVRRLAREILRLVYQLNDPEALRLLWELFARALSSSSS
B16: il10ra_site1_sap_13_mot_ems_3hM_3349_000000004_0001_25_42_H_._32063319e58c7a3ce97db74413982e08_0001_1_0001_0000400021_0000002_0_0001 (protein)
chain: SSSSTDERFEKVKEAVERAVELQRNGDPEEARRVLEEALELAEEANDQILVRILQKLLERLSSSS
B17: il10ra_site1_normal_mot_HHH_b1_01821_000000158_0001_23_39_H_._HHH_b1_01089_0001_0000100005_0000001_0 (protein)
chain: SSSSSSDLEEEIEELLEELKQITDPREFSRVAQEALRLIFRLGDEELLRELWEIFKKWSSSSSSS
B18: il10ra_site1_normal_mot_HHH_b2_04251_af2_000000037_0001_42_56_H_._HHH_b2_03597_0001_0000200022_0000001_0_af2pred_dldesign_0_af2pred (protein)
chain: SSSSSELEALLEEIERLLDAGRLDEAKELLREAARLALEKNDPELIKRVIELAKRLEAAGSSSSS
B19: il10ra_site1_normal_mot_HHH_b1_05056_000000217_0001_1_20_H_._HHH_b1_00010_0001_0000300007_0000001_0 (protein)
chain: SSSSDEEEVEELLEEAKRLAEEGNPREASRLLQEAVRIAFEARNEELLREIWEVVREVAELSSSS

Some of the results follow.

This experiment concerns the target il10ra, Q13651. As to the kind of experiment: yeast display titration.
With B1, the “apparent Kd” value was “inactive: no binding seen”.

For the molecule B2, the “apparent Kd” value is “inactive: no binding seen”.

Consider B3, for which the “apparent Kd” value is “inactive: no binding seen”.

On to B4, for which the “apparent Kd” value was “inactive: no binding seen”.

As for B5, the “apparent Kd” value was “inactive: no binding seen”.

As to B6, the “apparent Kd” value is “inactive: no binding seen”.

As to B7, the “apparent Kd” value was “inactive: no binding seen”.

B8: the “apparent Kd” value is “inactive: no binding seen”.

For the molecule B9, the “apparent Kd” value was “inactive: no binding seen”.

For the molecule B10, the “apparent Kd” value was “inactive: no binding seen”.

With B11, the “apparent Kd” value is “inactive: no binding seen”.

Consider B12, for which the “apparent Kd” value is “inactive: no binding seen”.

For B13, the “apparent Kd” value is “inactive: no binding seen”.

In the case of B14, the “apparent Kd” value is “inactive: no binding seen”.

Regarding B15, the “apparent Kd” value is “inactive: no binding seen”.

For B16, the “apparent Kd” value was “inactive: no binding seen”.

In the case of B17, the “apparent Kd” value was “inactive: no binding seen”.

In the case of B18, the “apparent Kd” value is “inactive: no binding seen”.

Regarding B19, the “apparent Kd” value is “inactive: no binding seen”.

These data come from PMC10163288.
